# Data published in article PMC8179140.
# The chains behind the UniProt entries cited, without tags or fusion partners.
# UniProt O95452: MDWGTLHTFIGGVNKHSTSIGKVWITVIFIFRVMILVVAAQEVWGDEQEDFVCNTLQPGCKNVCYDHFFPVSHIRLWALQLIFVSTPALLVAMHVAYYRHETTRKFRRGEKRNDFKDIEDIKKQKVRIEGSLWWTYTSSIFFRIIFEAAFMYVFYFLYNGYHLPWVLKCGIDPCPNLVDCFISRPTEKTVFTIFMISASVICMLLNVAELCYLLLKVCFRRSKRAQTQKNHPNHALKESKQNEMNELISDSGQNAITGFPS
# No constants are given. Whether binding was seen depends on the method and setting. Binding seen in cells or lysates may run through a third protein. Some entries that bind do so weakly or less than the wild type.
# Target: Connexin30 (UniProt O95452)
# Assay: co-IP; TMEM43 WT or p.(Arg372Ter) coexpressed with Cx26 or Cx30 in HEK293T cells (heterologous expression system)
row,binding,Binder
1,binds,"TMEM43-p.(Arg372Ter) (domain or fragment, UniProt Q9BTV4 1-371) MAANYSSTSTRREHVKVKTSSQPGFLERLSETSGGMFVGLMAFLLSFYLIFTNEGRALKTATSLAEGLSLVVSPDSIHSVAPENEGRLVHIIGALRTSKLLSDPNYGVHLPAVKLRRHVEMYQWVETEESREYTEDGQVKKETRYSYNTEWRSEIINSKNFDREIGHKNPSAMAVESFMATAPFVQIGRFFLSSGLIDKVDNFKSLSLSKLEDPHVDIIRRGDFFYHSENPKYPEVGDLRVSFSYAGLSGDDPDLGPAHVVTVIARQRGDQLVPFSTKSGDTLLLLHHGDFSAEEVFHRELRSNSMKTWGLRAAGWMAMFMGLNLMTRILYTLVDWFPVFRDLVNIGLKAFAFCVATSLTLLTVAAGWLFY"
2,binds,"TMEM43 wild-type (WT) (protein, UniProt Q9BTV4 1-400) MAANYSSTSTRREHVKVKTSSQPGFLERLSETSGGMFVGLMAFLLSFYLIFTNEGRALKTATSLAEGLSLVVSPDSIHSVAPENEGRLVHIIGALRTSKLLSDPNYGVHLPAVKLRRHVEMYQWVETEESREYTEDGQVKKETRYSYNTEWRSEIINSKNFDREIGHKNPSAMAVESFMATAPFVQIGRFFLSSGLIDKVDNFKSLSLSKLEDPHVDIIRRGDFFYHSENPKYPEVGDLRVSFSYAGLSGDDPDLGPAHVVTVIARQRGDQLVPFSTKSGDTLLLLHHGDFSAEEVFHRELRSNSMKTWGLRAAGWMAMFMGLNLMTRILYTLVDWFPVFRDLVNIGLKAFAFCVATSLTLLTVAAGWLFYRPLWALLIAGLALVPILVARTRVPAKKLE"
